This experiment deals with FLAG-tagged UBR5 (human) (UniProt O95071). The experiment is described as follows: affinity purification with mass spectrometry; HEK293T transiently transfected in triplicate with FLAG-UBR5 or FLAG alone (control); 1% CHAPS lysis buffer; anti-FLAG beads, washed, competed off with FLAG peptides in molar excess; mass spectrometry.

By UniProt entry, the sequences of proteins in these tests, tags left out.
UniProt O95071: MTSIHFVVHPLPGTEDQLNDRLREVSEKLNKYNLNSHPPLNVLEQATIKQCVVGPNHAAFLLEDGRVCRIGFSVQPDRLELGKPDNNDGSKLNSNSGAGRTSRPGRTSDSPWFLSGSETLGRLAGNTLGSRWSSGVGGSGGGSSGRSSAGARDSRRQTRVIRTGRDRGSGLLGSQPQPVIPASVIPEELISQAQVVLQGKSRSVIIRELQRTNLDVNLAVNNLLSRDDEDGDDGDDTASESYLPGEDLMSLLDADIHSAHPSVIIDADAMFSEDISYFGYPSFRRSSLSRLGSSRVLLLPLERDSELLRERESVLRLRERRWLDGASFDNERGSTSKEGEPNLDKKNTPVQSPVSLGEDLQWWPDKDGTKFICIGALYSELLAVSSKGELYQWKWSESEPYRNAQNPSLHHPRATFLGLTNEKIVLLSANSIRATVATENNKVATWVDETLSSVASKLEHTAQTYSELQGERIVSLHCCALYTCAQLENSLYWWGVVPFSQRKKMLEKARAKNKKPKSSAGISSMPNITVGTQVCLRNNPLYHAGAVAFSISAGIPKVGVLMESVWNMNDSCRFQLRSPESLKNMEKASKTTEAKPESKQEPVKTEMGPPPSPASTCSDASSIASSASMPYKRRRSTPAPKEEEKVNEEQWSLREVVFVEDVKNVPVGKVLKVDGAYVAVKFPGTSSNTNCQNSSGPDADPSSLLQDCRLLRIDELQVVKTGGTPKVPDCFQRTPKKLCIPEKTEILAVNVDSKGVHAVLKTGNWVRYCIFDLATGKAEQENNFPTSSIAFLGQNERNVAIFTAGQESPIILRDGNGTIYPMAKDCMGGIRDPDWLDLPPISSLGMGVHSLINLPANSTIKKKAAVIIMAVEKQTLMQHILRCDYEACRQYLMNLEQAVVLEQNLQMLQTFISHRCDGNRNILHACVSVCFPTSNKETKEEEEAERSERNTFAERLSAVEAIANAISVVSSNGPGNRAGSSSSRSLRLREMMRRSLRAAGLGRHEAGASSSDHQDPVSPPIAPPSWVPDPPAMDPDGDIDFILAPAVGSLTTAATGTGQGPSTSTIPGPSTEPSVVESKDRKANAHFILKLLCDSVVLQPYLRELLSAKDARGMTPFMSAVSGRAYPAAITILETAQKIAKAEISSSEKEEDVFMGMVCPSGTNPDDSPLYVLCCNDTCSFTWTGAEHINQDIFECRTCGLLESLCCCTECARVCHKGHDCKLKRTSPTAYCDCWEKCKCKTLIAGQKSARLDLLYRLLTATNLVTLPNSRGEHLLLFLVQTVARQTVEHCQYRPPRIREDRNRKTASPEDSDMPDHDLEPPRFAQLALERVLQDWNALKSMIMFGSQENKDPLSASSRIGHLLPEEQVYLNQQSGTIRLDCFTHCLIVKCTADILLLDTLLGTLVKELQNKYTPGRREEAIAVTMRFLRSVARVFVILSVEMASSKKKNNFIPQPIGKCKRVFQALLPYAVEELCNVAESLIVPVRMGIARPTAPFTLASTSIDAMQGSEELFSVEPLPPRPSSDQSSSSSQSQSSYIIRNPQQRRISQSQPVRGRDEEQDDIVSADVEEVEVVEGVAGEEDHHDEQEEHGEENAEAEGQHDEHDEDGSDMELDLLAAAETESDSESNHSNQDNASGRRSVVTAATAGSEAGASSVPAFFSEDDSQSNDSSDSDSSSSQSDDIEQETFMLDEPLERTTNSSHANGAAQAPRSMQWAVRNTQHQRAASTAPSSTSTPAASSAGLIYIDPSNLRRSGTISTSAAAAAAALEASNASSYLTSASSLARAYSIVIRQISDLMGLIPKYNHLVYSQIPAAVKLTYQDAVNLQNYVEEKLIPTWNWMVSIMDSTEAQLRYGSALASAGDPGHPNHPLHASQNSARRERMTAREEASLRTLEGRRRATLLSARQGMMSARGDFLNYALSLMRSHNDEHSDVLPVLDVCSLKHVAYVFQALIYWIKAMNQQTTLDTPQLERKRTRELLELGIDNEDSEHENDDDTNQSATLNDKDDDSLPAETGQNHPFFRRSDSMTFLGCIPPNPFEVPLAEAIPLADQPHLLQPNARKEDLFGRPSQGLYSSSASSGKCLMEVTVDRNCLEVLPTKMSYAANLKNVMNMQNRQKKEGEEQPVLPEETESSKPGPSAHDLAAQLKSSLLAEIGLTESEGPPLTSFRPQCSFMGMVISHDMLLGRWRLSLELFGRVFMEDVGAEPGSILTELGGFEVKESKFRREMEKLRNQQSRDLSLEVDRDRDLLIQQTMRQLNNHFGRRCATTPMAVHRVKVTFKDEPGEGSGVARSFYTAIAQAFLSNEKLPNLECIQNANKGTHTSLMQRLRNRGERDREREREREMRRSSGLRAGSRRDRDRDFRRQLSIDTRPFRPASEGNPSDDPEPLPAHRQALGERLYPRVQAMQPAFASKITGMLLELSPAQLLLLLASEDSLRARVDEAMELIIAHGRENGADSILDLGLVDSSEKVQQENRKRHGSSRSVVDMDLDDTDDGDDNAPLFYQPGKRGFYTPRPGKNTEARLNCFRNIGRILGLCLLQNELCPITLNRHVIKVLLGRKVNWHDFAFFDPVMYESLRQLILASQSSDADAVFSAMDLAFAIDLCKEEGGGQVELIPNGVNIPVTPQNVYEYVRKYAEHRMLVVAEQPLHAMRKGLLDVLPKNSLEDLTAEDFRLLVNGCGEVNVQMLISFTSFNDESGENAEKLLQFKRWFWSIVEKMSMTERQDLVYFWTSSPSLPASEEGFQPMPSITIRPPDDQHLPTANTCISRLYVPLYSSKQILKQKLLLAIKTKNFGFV
UniProt Q92616: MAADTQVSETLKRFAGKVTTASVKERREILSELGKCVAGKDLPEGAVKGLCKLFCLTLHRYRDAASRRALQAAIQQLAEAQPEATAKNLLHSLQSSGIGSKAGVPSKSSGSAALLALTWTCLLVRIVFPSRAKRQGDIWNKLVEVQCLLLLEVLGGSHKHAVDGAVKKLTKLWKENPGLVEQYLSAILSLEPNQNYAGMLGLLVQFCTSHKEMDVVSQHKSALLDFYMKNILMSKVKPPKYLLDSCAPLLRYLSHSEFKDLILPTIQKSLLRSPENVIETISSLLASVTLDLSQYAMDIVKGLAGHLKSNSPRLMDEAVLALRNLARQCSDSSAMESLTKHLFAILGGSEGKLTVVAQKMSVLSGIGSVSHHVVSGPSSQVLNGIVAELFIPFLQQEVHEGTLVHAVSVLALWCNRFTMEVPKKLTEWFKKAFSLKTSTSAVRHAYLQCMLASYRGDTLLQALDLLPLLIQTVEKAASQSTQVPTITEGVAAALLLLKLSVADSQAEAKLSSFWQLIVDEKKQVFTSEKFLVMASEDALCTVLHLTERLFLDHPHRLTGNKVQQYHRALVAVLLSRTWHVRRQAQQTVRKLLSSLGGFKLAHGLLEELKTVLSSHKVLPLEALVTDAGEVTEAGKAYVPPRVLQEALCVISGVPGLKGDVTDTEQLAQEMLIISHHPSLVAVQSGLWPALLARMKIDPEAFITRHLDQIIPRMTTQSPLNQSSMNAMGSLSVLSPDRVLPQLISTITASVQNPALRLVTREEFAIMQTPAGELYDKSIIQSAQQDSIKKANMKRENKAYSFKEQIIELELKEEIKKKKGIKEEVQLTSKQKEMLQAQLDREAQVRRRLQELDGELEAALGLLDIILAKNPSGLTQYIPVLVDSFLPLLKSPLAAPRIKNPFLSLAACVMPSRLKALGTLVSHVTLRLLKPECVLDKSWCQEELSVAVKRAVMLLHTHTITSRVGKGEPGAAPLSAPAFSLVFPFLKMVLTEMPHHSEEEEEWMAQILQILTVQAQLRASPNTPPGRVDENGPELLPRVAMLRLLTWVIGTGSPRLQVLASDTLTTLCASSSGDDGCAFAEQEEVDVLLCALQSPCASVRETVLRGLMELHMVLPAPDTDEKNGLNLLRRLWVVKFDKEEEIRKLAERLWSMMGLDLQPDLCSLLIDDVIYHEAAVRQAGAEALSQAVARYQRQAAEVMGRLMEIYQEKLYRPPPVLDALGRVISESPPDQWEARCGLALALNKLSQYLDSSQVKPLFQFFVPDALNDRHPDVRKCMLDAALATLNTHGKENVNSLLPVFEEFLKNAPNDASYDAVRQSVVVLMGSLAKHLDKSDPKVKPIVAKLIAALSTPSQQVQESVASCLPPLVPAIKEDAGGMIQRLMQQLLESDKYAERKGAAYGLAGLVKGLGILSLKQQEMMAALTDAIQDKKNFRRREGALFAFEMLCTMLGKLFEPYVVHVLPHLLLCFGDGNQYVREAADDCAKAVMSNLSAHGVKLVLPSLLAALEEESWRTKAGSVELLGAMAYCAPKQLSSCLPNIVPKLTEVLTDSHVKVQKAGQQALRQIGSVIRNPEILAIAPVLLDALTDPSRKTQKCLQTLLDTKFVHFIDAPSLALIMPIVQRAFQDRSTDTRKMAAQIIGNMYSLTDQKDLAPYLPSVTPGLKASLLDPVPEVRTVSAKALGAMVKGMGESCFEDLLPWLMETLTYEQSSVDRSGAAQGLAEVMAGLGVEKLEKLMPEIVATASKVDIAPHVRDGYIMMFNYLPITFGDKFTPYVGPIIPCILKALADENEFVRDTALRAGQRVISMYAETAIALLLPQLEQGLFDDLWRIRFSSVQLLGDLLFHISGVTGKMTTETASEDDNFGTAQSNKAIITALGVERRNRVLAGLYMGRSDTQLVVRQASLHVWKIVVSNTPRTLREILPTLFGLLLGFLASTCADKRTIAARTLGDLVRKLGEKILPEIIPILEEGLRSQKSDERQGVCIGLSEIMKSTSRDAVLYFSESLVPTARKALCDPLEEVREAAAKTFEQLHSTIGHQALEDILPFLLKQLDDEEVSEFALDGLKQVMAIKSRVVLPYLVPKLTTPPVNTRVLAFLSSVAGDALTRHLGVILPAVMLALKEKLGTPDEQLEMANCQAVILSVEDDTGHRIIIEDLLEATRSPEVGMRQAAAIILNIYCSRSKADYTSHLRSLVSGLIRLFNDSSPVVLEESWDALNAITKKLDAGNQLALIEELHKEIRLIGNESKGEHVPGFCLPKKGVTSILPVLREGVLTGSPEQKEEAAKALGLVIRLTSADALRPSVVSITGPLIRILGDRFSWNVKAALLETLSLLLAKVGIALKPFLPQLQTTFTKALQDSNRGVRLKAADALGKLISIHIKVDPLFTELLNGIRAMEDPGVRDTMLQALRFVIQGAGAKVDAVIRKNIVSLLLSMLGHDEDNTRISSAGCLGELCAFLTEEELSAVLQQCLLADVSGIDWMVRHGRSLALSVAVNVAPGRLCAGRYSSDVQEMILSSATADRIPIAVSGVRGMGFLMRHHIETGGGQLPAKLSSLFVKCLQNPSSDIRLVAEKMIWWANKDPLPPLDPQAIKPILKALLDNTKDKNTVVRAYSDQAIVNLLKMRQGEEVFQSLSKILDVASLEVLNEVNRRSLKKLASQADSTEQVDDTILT

No constants are given. Whether binding was seen depends on the method and setting. Binding seen in cells or lysates may run through a third protein. These calls come from enrichment with a bait or labelling near it, and not all partners need be listed.

In the case of GCN1L1 (from UniProt Q92616 1-2671), the binding entry is “binds”.

The record behind these values is PMC7457484.
